The source of these data is patent US20220016102A1, “ER PROTEIN REGULATORS AND USE THEREOF” (ShanghaiTech University, priority 2018, published 2022).

For the test, the system named is MCF-7 cell line. Briefly: Assay for determination of inhibition of MCF-7 cell proliferation (CCK-8). The format is cell-based. The conditions noted are these: Homo sapiens, MCF7, 96 h; MCF-7 cells, 4 days, CCK-8, FIG. 3. As for the experimental part: MCF-7 were cultured in ncubator with 5% CO2 at 37° C. Complete medium was EMEM supplemented with 10% FBS, 100 U/mL Penicillin and Streptomycin, and 0.77 μg/mL recombinant human insulin.
10 μL CCK-8 reagent was added to the test well without adding the drugs, and after 4 h the O.D.value of the test well was recorded as the initial cell level. • After 4 days, 10 μL CCK-8 reagent was added, and the O.D.values was measured, and inhibition level was calculated.

Turning to `CC/C(=C(\c1ccccc1)c1ccc(OCCN(C)C)cc1)c1ccccc1` [Tamoxifene, Tamoxifen, reference compound], the IC50 was 602 nM.

A word on the IC50: it is the point on the concentration scale where inhibition reaches its midpoint. Low readings indicate inhibition by little substance, high ones a need for much substance.
